According to paper PMC12526889:
Read-outs that look alike come from different tables or passages of the source. These are yes or no findings as the source states them, for the method shown. Binding seen in cells or lysates may run through a third protein. Tags and fused reporters may be left off the sequences shown. Each block holds one molecule with its values, some of them ahead of it.

Protein sequences, listed by entry. Tags and fused reporters are not part of them.
UniProt P05804: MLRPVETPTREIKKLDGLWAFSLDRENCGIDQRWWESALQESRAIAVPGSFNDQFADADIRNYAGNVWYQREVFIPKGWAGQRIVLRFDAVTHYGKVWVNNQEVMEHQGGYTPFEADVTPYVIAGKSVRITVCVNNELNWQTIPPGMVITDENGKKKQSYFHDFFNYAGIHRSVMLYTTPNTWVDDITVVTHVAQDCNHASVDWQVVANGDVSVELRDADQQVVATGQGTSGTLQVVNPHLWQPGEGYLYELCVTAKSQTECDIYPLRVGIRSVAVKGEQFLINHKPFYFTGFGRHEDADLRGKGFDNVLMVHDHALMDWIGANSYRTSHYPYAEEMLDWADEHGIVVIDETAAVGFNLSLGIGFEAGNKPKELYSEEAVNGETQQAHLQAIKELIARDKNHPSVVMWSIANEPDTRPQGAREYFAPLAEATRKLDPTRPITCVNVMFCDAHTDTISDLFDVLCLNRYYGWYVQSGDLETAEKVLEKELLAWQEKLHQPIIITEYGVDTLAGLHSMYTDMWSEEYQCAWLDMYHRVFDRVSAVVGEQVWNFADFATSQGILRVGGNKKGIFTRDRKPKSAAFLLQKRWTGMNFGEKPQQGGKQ

Assays:
[1] = target: T1, Yn:CENP-C (BiFC fusion) (Arabidopsis thaliana) (UniProt Q66LG9); assay: split reporter; BiFC: fusions to the N-terminal and C-terminal fragments of YFP coinfiltrated with p19 into N. benthamiana leaves; confocal imaging 3 days after inoculation
T1 sequence: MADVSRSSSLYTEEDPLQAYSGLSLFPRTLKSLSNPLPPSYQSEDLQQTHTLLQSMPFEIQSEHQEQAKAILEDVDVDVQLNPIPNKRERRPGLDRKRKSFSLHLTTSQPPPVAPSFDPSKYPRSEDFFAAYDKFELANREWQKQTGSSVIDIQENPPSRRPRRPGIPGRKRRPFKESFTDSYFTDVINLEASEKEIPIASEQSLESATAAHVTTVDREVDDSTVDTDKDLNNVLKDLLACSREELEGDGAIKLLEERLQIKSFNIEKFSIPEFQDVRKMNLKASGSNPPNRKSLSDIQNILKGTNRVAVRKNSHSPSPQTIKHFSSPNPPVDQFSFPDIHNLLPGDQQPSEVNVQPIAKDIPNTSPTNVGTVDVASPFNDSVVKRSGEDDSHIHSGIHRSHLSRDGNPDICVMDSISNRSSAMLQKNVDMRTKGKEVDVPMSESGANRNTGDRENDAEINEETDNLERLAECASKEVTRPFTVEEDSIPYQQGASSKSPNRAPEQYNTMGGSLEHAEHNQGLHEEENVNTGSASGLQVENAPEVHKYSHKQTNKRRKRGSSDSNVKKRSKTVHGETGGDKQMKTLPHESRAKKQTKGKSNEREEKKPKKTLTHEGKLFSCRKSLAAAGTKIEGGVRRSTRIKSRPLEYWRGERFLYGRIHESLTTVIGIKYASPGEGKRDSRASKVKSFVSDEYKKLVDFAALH

[2] = target: T1, Yn:CENP-C (BiFC fusion) (Arabidopsis thaliana); assay: as above; remark: listed apart in the source

binding [1]: no binding
Molecule: GUS protein (BiFC negative control) (from UniProt P05804 1-603) (enzyme)

binding [2]: no binding
B1: MIS12 fused to Yc (BiFC fusion) (protein, UniProt Q2V0Z5 1-238)
chain: MEGSKSEAVFDSMNLNPQIFINEAINSVEDYVDQAFDFYARDASKSLKIKGSDKQKSQALSNGIARVRGLLLSVIDNRLKLWESYSLRFCFAVPDGFVLPKSEESSSVHQDGLYDLELDAELDSLRDKLNVVGKRSVELDSELQALERSSVSRERSLRLVNEALELYDESSMDEIFKEMTKMASELRASVERLKTRRMKASESAKVKRLKNHGKEFSAMTFDGKLEDLEKFQAELRKM
